The text below walks through data of publication PMC8134429.

Chains of the proteins cited; added tags and fusions are not shown. Residues count along the entry.
UniProt P02751, residues 32-2477: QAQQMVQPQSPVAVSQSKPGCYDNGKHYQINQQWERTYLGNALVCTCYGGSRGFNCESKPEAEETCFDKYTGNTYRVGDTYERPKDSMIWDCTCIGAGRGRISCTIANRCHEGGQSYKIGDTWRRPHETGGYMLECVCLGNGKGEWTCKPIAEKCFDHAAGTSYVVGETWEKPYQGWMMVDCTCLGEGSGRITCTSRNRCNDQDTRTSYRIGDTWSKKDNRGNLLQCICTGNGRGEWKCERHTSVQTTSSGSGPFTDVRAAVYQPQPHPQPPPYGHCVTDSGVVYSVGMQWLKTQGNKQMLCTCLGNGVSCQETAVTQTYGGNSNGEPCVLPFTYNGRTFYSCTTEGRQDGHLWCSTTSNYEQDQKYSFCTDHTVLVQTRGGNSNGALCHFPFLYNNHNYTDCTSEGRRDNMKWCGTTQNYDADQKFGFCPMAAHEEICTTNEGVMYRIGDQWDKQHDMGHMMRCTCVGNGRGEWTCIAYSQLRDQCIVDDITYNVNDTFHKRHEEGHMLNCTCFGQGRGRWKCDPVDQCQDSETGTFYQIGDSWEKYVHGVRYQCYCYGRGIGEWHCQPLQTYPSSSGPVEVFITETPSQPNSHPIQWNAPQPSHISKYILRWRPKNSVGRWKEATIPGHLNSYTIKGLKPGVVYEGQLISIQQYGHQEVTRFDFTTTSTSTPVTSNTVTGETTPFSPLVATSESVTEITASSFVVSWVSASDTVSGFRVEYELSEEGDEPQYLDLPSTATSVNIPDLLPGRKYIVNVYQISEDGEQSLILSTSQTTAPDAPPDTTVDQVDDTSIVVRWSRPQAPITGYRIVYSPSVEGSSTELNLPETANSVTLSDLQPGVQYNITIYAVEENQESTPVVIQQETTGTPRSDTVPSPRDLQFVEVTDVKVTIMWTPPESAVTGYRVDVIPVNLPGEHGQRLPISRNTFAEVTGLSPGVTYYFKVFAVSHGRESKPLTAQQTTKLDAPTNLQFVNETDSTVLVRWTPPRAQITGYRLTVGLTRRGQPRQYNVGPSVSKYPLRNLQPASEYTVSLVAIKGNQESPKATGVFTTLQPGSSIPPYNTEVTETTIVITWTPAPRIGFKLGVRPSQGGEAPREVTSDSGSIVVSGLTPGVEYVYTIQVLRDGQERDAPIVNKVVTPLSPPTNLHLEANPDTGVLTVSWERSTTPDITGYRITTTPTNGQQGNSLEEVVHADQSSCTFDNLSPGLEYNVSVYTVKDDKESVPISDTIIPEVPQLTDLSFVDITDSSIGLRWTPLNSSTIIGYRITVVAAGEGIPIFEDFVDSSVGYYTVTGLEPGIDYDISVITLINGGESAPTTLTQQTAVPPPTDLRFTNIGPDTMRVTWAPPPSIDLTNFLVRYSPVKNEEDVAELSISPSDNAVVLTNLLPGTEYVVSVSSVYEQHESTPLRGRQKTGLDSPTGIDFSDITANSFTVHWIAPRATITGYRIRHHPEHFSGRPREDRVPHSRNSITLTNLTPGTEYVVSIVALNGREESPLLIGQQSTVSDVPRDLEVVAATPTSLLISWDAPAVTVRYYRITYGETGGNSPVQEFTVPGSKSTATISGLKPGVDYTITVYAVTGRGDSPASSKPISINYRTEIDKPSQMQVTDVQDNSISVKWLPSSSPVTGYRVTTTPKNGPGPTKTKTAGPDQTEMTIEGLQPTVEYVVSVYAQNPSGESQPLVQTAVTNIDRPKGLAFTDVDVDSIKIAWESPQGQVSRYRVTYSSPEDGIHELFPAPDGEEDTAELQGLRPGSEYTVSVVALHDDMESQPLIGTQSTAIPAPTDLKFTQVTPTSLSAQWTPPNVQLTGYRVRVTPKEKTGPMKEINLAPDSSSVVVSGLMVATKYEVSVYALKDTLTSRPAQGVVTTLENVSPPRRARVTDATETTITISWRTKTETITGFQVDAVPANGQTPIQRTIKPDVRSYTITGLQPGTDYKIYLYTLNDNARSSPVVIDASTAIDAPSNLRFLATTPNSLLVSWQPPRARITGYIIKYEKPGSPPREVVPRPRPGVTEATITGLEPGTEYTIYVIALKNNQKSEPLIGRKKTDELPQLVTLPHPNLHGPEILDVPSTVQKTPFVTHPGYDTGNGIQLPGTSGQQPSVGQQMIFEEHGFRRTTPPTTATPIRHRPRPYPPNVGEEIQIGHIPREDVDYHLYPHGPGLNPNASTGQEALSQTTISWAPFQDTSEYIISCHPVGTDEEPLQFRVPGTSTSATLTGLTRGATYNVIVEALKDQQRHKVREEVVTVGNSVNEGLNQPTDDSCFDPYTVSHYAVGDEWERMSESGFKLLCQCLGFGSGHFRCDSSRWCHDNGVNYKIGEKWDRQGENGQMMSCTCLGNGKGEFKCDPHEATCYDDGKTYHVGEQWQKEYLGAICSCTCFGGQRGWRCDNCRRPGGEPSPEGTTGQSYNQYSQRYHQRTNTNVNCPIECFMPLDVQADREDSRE
UniProt P13645: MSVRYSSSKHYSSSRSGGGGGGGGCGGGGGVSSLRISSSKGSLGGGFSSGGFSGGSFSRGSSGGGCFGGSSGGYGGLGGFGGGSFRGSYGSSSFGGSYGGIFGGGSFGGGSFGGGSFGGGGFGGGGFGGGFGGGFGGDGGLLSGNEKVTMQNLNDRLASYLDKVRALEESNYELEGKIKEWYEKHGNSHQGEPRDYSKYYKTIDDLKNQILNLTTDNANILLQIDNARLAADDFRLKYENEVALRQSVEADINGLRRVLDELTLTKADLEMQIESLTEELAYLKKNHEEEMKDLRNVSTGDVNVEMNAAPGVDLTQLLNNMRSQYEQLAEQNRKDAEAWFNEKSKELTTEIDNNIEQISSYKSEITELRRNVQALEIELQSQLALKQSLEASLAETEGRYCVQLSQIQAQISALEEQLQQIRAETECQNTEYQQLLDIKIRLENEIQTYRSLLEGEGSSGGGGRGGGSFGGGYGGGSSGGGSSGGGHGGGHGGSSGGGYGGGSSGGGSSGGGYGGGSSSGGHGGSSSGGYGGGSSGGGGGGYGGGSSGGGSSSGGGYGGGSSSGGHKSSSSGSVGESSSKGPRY
UniProt P21333: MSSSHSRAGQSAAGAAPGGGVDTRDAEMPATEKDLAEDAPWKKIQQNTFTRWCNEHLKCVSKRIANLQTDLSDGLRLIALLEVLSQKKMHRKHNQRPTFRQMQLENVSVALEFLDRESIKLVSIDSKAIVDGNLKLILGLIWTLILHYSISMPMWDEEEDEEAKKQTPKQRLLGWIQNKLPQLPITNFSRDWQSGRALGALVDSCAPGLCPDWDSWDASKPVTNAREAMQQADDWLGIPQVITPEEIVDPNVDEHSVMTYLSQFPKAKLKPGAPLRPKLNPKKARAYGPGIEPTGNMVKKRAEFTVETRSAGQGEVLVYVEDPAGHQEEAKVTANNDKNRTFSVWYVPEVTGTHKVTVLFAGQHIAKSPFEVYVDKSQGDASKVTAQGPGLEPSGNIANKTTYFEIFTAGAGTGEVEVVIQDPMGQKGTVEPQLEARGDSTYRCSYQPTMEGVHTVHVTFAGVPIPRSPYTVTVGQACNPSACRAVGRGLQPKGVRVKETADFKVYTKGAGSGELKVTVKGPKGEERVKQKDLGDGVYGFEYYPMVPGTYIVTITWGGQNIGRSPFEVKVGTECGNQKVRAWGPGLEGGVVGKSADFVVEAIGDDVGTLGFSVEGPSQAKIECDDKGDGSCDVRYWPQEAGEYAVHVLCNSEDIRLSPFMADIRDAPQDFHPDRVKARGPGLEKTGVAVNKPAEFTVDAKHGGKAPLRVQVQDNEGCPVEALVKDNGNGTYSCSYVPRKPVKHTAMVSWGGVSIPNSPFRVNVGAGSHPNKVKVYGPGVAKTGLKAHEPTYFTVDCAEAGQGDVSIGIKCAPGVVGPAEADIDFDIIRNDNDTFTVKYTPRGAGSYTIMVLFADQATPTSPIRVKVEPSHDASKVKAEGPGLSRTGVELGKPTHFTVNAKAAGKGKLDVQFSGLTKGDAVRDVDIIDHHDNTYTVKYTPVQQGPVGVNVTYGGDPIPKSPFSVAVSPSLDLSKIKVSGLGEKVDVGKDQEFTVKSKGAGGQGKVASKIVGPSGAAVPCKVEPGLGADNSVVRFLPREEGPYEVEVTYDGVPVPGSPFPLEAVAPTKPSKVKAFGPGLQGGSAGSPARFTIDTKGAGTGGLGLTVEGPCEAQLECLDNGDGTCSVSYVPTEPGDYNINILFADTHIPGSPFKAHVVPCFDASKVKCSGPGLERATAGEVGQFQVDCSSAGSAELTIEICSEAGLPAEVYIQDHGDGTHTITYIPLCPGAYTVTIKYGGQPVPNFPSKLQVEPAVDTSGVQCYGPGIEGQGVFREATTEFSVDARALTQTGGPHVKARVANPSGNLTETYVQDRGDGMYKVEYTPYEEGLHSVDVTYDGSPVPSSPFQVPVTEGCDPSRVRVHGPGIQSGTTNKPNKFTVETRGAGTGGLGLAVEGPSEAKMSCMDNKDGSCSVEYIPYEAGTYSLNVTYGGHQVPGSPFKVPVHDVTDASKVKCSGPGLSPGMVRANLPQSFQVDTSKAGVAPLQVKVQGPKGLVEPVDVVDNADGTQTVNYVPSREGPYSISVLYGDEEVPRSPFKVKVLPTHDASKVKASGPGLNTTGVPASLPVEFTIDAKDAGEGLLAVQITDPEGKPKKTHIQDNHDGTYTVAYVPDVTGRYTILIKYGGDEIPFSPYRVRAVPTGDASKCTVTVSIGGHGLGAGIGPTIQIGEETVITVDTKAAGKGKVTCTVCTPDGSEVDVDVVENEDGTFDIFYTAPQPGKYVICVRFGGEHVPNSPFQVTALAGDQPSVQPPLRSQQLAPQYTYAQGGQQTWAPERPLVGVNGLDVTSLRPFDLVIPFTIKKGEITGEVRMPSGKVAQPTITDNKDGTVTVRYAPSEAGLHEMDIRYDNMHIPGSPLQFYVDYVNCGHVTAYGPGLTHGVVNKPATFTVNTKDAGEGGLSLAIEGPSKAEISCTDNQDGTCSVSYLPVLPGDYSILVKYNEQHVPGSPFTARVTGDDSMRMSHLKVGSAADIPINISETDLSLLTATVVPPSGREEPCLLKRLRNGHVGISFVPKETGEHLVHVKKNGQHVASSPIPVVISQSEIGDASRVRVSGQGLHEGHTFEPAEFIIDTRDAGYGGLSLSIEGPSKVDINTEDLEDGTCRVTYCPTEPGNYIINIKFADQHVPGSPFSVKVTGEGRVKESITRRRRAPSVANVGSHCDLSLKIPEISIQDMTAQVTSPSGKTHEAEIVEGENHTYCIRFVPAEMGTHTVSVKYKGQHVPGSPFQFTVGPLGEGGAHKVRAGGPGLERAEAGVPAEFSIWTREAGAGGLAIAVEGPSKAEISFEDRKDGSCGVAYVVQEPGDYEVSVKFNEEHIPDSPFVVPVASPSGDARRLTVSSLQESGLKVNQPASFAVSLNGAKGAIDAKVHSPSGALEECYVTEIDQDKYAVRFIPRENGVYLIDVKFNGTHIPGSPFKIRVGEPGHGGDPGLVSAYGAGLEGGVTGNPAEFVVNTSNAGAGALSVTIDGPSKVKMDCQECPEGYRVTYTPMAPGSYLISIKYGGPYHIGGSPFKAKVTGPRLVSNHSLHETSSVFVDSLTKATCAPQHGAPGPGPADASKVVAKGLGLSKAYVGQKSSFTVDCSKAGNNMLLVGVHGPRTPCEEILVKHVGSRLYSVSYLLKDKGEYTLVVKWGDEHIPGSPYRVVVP
UniProt P04264: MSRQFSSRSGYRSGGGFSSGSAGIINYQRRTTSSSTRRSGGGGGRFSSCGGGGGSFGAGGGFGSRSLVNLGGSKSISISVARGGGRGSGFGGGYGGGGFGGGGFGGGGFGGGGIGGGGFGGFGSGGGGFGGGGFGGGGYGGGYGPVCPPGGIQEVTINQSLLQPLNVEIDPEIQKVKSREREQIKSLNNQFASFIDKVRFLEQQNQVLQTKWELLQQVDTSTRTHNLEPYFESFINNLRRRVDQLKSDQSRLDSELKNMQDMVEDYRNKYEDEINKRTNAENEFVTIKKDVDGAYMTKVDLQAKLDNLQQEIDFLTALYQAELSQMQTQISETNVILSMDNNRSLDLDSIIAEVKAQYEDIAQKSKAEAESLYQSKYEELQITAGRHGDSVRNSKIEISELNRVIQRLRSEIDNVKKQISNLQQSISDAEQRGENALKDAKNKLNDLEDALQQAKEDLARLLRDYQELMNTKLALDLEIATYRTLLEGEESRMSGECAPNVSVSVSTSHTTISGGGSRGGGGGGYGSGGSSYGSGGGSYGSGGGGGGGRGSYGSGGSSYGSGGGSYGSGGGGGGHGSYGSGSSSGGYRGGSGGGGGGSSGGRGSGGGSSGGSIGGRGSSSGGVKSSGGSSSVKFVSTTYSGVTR

No constants are given. Whether binding was seen depends on the method and setting. Binding seen in cells or lysates may run through a third protein. Here binding means that the protein was enriched with, or labelled near, the bait; the list need not be complete.

The target of assay [1] is Fibronectin (endogenous, human myotubes) (human (endogenous in human myotubes)) (UniProt P02751). Briefly: affinity purification with mass spectrometry; fibronectin precipitated with 10 ug human fibronectin antibody (Sigma) on IgG beads from human myotube lysates (healthy control, LGMD2I, CMD) in immunoprecipitation buffer (Pierce); on-bead trypsin digestion; DDA and SWATH; collagen peptide normalised to fibronectin peptide.

Assay [2] concerns the target FKRP (bait of the FKRP pull down of Table 2). Put plainly: affinity purification with mass spectrometry; immunoprecipitation of FKRP and SWATH mass spectrometry; sample not stated (hits are mouse entries).

On to “Keratin, type II cytoskeletal 6B (human) (from UniProt P04259 1-564)”, for which, in assay [1], the binding entry was “binds”.

“Keratin, type I cytoskeletal 10 (human) (from UniProt P13645 1-584)”: the binding result in assay [1] was “binds”.

As to “Myosin-9 (human) (from UniProt P35579 1-1960)”, the binding entry in assay [1] is reported as “binds”.

Regarding “Filamin-A (human) (from UniProt P21333 1-2647)”, the binding entry in assay [1] is reported as “binds”.

For the molecule “Myosin-10 (human) (from UniProt P35580 1-1976)”, the binding entry in assay [1] was “binds”.

On to “Keratin, type II cytoskeletal 1 (human) (from UniProt P04264 1-644)”, for which the binding entry in assay [1] is listed as “binds”.

B1: Dermcidin (human) (protein, UniProt P81605 20-110)
chain: YDPEAASAPGSGNPCHEASAAQKENAGEDPGLARQAPKPRKQRSSLLEKGLDGAKKAVGGLGKLGKDAVEDLESVGKGAVHDVKDVLDSVL
Consider B1, for which the binding entry in assay [1] is listed as “binds”.

B2: Myosin light polypeptide 6 (mouse) (protein, UniProt Q60605 1-151)
chain: MCDFTEDQTAEFKEAFQLFDRTGDGKILYSQCGDVMRALGQNPTNAEVLKVLGNPKSDEMNVKVLDFEHFLPMLQTVAKNKDQGTYEDYVEGLRVFDKEGNGTVMGAEIRHVLVTLGEKMTEEEVEMLVAGHEDSNGCINYEAFVRHILSG
As for B2, the binding result in assay [2] is “binds”.

B3: Keratin, type I cytoskeletal 9 (human) (protein, UniProt P35527 1-623)
chain: MSCRQFSSSYLSRSGGGGGGGLGSGGSIRSSYSRFSSSGGGGGGGRFSSSSGYGGGSSRVCGRGGGGSFGYSYGGGSGGGFSASSLGGGFGGGSRGFGGASGGGYSSSGGFGGGFGGGSGGGFGGGYGSGFGGFGGFGGGAGGGDGGILTANEKSTMQELNSRLASYLDKVQALEEANNDLENKIQDWYDKKGPAAIQKNYSPYYNTIDDLKDQIVDLTVGNNKTLLDIDNTRMTLDDFRIKFEMEQNLRQGVDADINGLRQVLDNLTMEKSDLEMQYETLQEELMALKKNHKEEMSQLTGQNSGDVNVEINVAPGKDLTKTLNDMRQEYEQLIAKNRKDIENQYETQITQIEHEVSSSGQEVQSSAKEVTQLRHGVQELEIELQSQLSKKAALEKSLEDTKNRYCGQLQMIQEQISNLEAQITDVRQEIECQNQEYSLLLSIKMRLEKEIETYHNLLEGGQEDFESSGAGKIGLGGRGGSGGSYGRGSRGGSGGSYGGGGSGGGYGGGSGSRGGSGGSYGGGSGSGGGSGGGYGGGSGGGHSGGSGGGHSGGSGGNYGGGSGSGGGSGGGYGGGSGSRGGSGGSHGGGSGFGGESGGSYGGGEEASGSGGGYGGGSGKSSHS
Regarding B3, in assay [1], the binding result was “binds”.
